Experimental findings from paper doi:10.1101/856021 are described below.

Chains of the proteins cited; added tags and fusions are not shown. Lines headed by an entry give the natural chain unless they say otherwise; changes in a name come on top.
UniProt Q9VAA9: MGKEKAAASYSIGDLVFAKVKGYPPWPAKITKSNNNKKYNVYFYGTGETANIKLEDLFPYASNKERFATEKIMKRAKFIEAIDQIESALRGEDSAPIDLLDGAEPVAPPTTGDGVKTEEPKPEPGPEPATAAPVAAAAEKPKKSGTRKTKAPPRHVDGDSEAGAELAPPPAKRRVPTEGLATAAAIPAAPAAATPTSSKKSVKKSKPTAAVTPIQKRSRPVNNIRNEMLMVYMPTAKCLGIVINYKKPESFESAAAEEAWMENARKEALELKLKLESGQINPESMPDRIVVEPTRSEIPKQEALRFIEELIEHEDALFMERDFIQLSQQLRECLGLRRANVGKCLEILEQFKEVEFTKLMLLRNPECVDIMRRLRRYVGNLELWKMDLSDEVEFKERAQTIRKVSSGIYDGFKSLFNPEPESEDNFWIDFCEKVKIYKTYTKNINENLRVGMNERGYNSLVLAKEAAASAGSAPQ

For this test, the target named is V5::dP75 (V5 tag knocked in at the endogenous dP75 locus) (Drosophila (endogenous in fly ovaries)) (UniProt Q9VAA9). Briefly: affinity purification with mass spectrometry.

Results are given in words; binding and its absence hold for the method and conditions named. In cells and extracts the contact can be indirect. A yes stands for co-enrichment or nearness to the bait. Other partners may have been found. Sequences can lack the tags named with a protein.

B1: histone kinase Jil-1 (endogenous, fly ovaries) (enzyme, UniProt Q9V3I5 1-1207)
chain: MSRLQKQNYEILSGTSTSRLKNHQHPRESESLAYEEPDQMVRNHLNGQLVANGNGKTRKNSNSETMTNGKKSKLNTEGSGSGSGKTLNYNNNNNNNNSISATNGQYTNSSSKTTSASARDYTYRETISPPTPPSPPTTNVADIVCISDAESEDGRDPEREYYDQDMEEDEPNGIEIDESSSSLSKAKSNNAAAAAAAAAAAAAAAASKASSSTTPSYAMPTSNSTPLDLDNEAHQRDLEAVTDLKYYVKLYSDEAVSLNDFKIIRVLGTGAYGRVFLVRKLTRHDAGKLYAMKVLNKITVVQKRKTAEHTKTERVVLEAIQRNPFLVSLHYAFQSSSKLYLVLDFANGGELFTHLYHSENFEESRVRVYIAEVVLALEQLHQLGIIYRDIKLENILLDGEGHIVLSDFGLSKILTAENEYRAHSFCGTLEYMAPEIIRTGPPGHDSAVDWWSVGVLTFELLTGASPFATSDGQVQQSEISRRIQKEQPMIPSSFSANARDFVLKMLEKNPKRRLGGNHRDASEIKEHPFFNGINWQELRTKRRKAPYKPTLTAEDDVQNFSNEFTDQVPEDPECDAPPSRIRLFRGYTYVAPEHLEQMRRDNHCEIQYFNTGLQNIPCRPDDLELGTRTSNGAYGTCHFVVDSSTDLVFLAKIIPLSKFRPSEVDALISCALDTTNHKNIVSYHGTFREKCETWIVMEYLSGPELTASIRMDEDSCREIFLQLVMAVRHIHSKHFIHGDLKPENIMFENREDRTVKLIDFGSACYNNRFKSWKDKPRYTLDYAPPEMLADANLVTYSPAVDIYGLGATLYTMLVGHRPYRQNEDDVDHSAAAHHELRKRMRRGTFNQRSMRWESASPAFRHLVSWCLQRDPADRPTLSDILDSEWLQYGSNDPDVDIILPQQMVVDLSEDTMEQPTGGMFDDQQQLEFMHDKSAEDEGITLVSEPMDTTVATHESRRNAAAFSSVVAPTTDDEIVHERFDPAFEVQADFYGFDENAPPLPLPEEYYSELPLPEEDRQYIPPPPALIPVEPETTFRRPRTRQQRRTESQLVQPVSVATYEDSKASLRVLMQQLPPPGDNVVARIPKRTHRVVRTLPPTFGTTKREENFYGFSKTAISWRKTRASWRHFCLLINGVQQVLKVRFKKARRVYCLPHIKEEKLDHAYEKPLTFPRPKAQLKRTKREPKVPRPPTRVQPERARAMRQLYQFQ
Consider B1, for which the binding entry was “binds”.
